Measurements from article PMC6391914.
No constants are given. Whether binding was seen depends on the method and setting. Some binding calls cover weakened binding; strength is not graded here.

The chains behind the UniProt entries cited, without tags or fusion partners. Residues count along the entry.
UniProt P63279: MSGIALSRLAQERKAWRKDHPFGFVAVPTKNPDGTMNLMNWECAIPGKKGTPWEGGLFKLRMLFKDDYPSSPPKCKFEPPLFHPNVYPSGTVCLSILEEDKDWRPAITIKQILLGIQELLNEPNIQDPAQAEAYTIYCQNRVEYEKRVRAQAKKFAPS
UniProt P55854, residues 1-92: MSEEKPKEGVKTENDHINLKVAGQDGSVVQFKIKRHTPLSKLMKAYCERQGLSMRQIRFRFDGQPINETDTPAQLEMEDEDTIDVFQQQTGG

Biological target: GST-UBC9 (UniProt P63279)
Assay: pull-down; both purified

For His6-SUMO-3 (from UniProt P55854 1-92), the binding was “binds”.
